These results are taken from article PMC10846047.

No constants are given. Whether binding was seen depends on the method and setting. In cells and extracts the contact can be indirect. These calls come from enrichment with a bait or labelling near it, and not all partners need be listed.

Assay [1] has as its target HA-tagged envelope protein 2 (HA-E2) of HCV Jc1 (hepatitis C virus Jc1 (genotype 2a)). Nature of the assay: affinity purification with mass spectrometry; as a1, cells replicating the HA-E2 virus with core residues 69-72 changed to alanines (core C69-72A); control: the cognate untagged mutant virus; second data set.
Assay [2] shares this target. As to the kind of experiment: affinity purification with mass spectrometry; anti-HA agarose, overnight 4 °C, on pre-cleared lysates (50 mM HEPES pH 7.4, 150 mM NaCl, 10% glycerol, 1% NP-40, 1 mM CaCl2) of Huh-7.5 cells 48 h after transfection with HA-tagged Jc1 RNA of parental background (HA-E2, HAHA-p7, HA-NS4B Q31R) or of Huh-7.5/HA-ApoE cells with Jc1; label-free LC-MS/MS against untagged controls; two data sets for HA-E2.

For assay [3] the target is unchanged. As to the kind of experiment: affinity purification with mass spectrometry; as a1, cells replicating the HA-E2 virus with the core P138A P143A double mutation (core DP); control: the cognate untagged mutant virus; second data set.
The target in assay [4] is double HA-epitope tagged p7 (HAHA-p7) of HCV Jc1 (hepatitis C virus Jc1 (genotype 2a)). Nature of the assay: affinity purification with mass spectrometry; anti-HA agarose, overnight 4 °C, on pre-cleared lysates (50 mM HEPES pH 7.4, 150 mM NaCl, 10% glycerol, 1% NP-40, 1 mM CaCl2) of Huh-7.5 cells 48 h after transfection with HA-tagged Jc1 RNA of parental background (HA-E2, HAHA-p7, HA-NS4B Q31R) or of Huh-7.5/HA-ApoE cells with Jc1; label-free LC-MS/MS against untagged controls; two data sets for HA-E2.

Assay [5] addresses HA-tagged envelope protein 2 (HA-E2) of HCV Jc1 (hepatitis C virus Jc1 (genotype 2a)). Nature of the assay: affinity purification with mass spectrometry; as a1, cells replicating the HA-E2 virus with the E1 K179Q mutation; control: the cognate untagged mutant virus; second data set.

B1: calmegin (CLGN) (protein, UniProt O14967 20-610)
chain: EFMDDDVETEDFEENSEEIDVNESELSSEIKYKTPQPIGEVYFAETFDSGRLAGWVLSKAKKDDMDEEISIYDGRWEIEELKENQVPGDRGLVLKSRAKHHAISAVLAKPFIFADKPLIVQYEVNFQDGIDCGGAYIKLLADTDDLILENFYDKTSYIIMFGPDKCGEDYKLHFIFRHKHPKTGVFEEKHAKPPDVDLKKFFTDRKTHLYTLVMNPDDTFEVLVDQTVVNKGSLLEDVVPPIKPPKEIEDPNDKKPEEWDERAKIPDPSAVKPEDWDESEPAQIEDSSVVKPAGWLDDEPKFIPDPNAEKPDDWNEDTDGEWEAPQILNPACRIGCGEWKPPMIDNPKYKGVWRPPLVDNPNYQGIWSPRKIPNPDYFEDDHPFLLTSFSALGLELWSMTSDIYFDNFIICSEKEVADHWAADGWRWKIMIANANKPGVLKQLMAAAEGHPWLWLIYLVTAGVPIALITSFCWPRKVKKKHKDTEYKKTDICIPQTKGVLEQEEKEEKAALEKPMDLEEEKKQNDGEMLEKEEESEPEEKSEEEIEIIEGQEESNQSNKSGSEDEMKEADESTGSGDGPIKSVRKRRVRKD
For B1, the binding entry in assay [1] and in assay [2] was “binds” each time.

B2: transmembrane protein 43 (TMEM43) (protein, UniProt Q9BTV4 1-400)
chain: MAANYSSTSTRREHVKVKTSSQPGFLERLSETSGGMFVGLMAFLLSFYLIFTNEGRALKTATSLAEGLSLVVSPDSIHSVAPENEGRLVHIIGALRTSKLLSDPNYGVHLPAVKLRRHVEMYQWVETEESREYTEDGQVKKETRYSYNTEWRSEIINSKNFDREIGHKNPSAMAVESFMATAPFVQIGRFFLSSGLIDKVDNFKSLSLSKLEDPHVDIIRRGDFFYHSENPKYPEVGDLRVSFSYAGLSGDDPDLGPAHVVTVIARQRGDQLVPFSTKSGDTLLLLHHGDFSAEEVFHRELRSNSMKTWGLRAAGWMAMFMGLNLMTRILYTLVDWFPVFRDLVNIGLKAFAFCVATSLTLLTVAAGWLFYRPLWALLIAGLALVPILVARTRVPAKKLE
Consider B2, for which, in assay [2], the binding entry was “binds”.

B3: osteosarcoma amplified 9 (OS9) (protein, UniProt Q13438 26-667)
chain: GGVGSLNLEELSEMRYGIEILPLPVMGGQSQSSDVVIVSSKYKQRYECRLPAGAIHFQREREEETPAYQGPGIPELLSPMRDAPCLLKTKDWWTYEFCYGRHIQQYHMEDSEIKGEVLYLGYYQSAFDWDDETAKASKQHRLKRYHSQTYGNGSKCDLNGRPREAEVRFLCDEGAGISGDYIDRVDEPLSCSYVLTIRTPRLCPHPLLRPPPSAAPQAILCHPSLQPEEYMAYVQRQADSKQYGDKIIEELQDLGPQVWSETKSGVAPQKMAGASPTKDDSKDSDFWKMLNEPEDQAPGGEEVPAEEQDPSPEAADSASGAPNDFQNNVQVKVIRSPADLIRFIEELKGGTKKGKPNIGQEQPVDDAAEVPQREPEKERGDPERQREMEEEEDEDEDEDEDEDERQLLGEFEKELEGILLPSDRDRLRSEVKAGMERELENIIQETEKELDPDGLKKESERDRAMLALTSTLNKLIKRLEEKQSPELVKKHKKKRVVPKKPPPSPQPTEEDPEHRVRVRVTKLRLGGPNQDLTVLEMKRENPQLKQIEGLVKELLEREGLTAAGKIEIKIVRPWAEGTEEGARWLTDEDTRNLKEIFFNILVPGAEEAQKERQRQKELESNYRRVWGSPGGEGTGDLDEFDF
For B3, the binding entry in assay [3] and in assay [1] was “binds” in each case.

B4: HM13 (protein, UniProt Q8TCT9 1-377)
chain: MDSALSDPHNGSAEAGGPTNSTTRPPSTPEGIALAYGSLLLMALLPIFFGALRSVRCARGKNASDMPETITSRDAARFPIIASCTLLGLYLFFKIFSQEYINLLLSMYFFVLGILALSHTISPFMNKFFPASFPNRQYQLLFTQGSGENKEEIINYEFDTKDLVCLGLSSIVGVWYLLRKHWIANNLFGLAFSLNGVELLHLNNVSTGCILLGGLFIYDVFWVFGTNVMVTVAKSFEAPIKLVFPQDLLEKGLEANNFAMLGLGDVVIPGIFIALLLRFDISLKKNTHTYFYTSFAAYIFGLGLTIFIMHIFKHAQPALLYLVPACIGFPVLVALAKGEVTEMFSYEESNPKDPAAVTESKEGTEASASKGLEKKEK
Take B4: in assay [2], the binding entry is “binds”.

B5: FBXO2 (protein, UniProt Q9UK22 1-296)
chain: MDGDGDPESVGQPEEASPEEQPEEASAEEERPEDQQEEEAAAAAAYLDELPEPLLLRVLAALPAAELVQACRLVCLRWKELVDGAPLWLLKCQQEGLVPEGGVEEERDHWQQFYFLSKRRRNLLRNPCGEEDLEGWCDVEHGGDGWRVEELPGDSGVEFTHDESVKKYFASSFEWCRKAQVIDLQAEGYWEELLDTTQPAIVVKDWYSGRSDAGCLYELTVKLLSEHENVLAEFSSGQVAVPQDSDGGGWMEISHTFTDYGPGVRFVRFEHGGQDSVYWKGWFGARVTNSSVWVEP
Take B5: the binding entry in assay [2] is reported as “binds”.

B6: PREB (protein, UniProt Q9HCU5 1-417)
chain: MGRRRAPELYRAPFPLYALQVDPSTGLLIAAGGGGAAKTGIKNGVHFLQLELINGRLSASLLHSHDTETRATMNLALAGDILAAGQDAHCQLLRFQAHQQQGNKAEKAGSKEQGPRQRKGAAPAEKKCGAETQHEGLELRVENLQAVQTDFSSDPLQKVVCFNHDNTLLATGGTDGYVRVWKVPSLEKVLEFKAHEGEIEDLALGPDGKLVTVGRDLKASVWQKDQLVTQLHWQENGPTFSSTPYRYQACRFGQVPDQPAGLRLFTVQIPHKRLRQPPPCYLTAWDGSNFLPLRTKSCGHEVVSCLDVSESGTFLGLGTVTGSVAIYIAFSLQCLYYVREAHGIVVTDVAFLPEKGRGPELLGSHETALFSVAVDSRCQLHLLPSRRSVPVWLLLLLCVGLIIVTILLLQSAFPGFL
For the molecule B6, the binding entry in assay [2] and in assay [4] was “binds” throughout.

B7: SPCS3 (protein, UniProt P61009 1-180)
chain: MNTVLSRANSLFAFSLSVMAALTFGCFITTAFKDRSVPVRLHVSRIMLKNVEDFTGPRERSDLGFITFDITADLENIFDWNVKQLFLYLSAEYSTKNNALNQVVLWDKIVLRGDNPKLLLKDMKTKYFFFDDGNGLKGNRNVTLTLSWNVVPNAGILPLVTGSGHVSVPFPDTYEITKSY
With B7, the binding entry in assay [5], in assay [1] and in assay [2] was “binds” in each case.
